Assay results as given in paper PMC10861631.

Chains of the proteins cited; added tags and fusions are not shown. Lines headed by an entry give the natural chain unless they say otherwise; changes in a name come on top.
UniProt Q9JLU4: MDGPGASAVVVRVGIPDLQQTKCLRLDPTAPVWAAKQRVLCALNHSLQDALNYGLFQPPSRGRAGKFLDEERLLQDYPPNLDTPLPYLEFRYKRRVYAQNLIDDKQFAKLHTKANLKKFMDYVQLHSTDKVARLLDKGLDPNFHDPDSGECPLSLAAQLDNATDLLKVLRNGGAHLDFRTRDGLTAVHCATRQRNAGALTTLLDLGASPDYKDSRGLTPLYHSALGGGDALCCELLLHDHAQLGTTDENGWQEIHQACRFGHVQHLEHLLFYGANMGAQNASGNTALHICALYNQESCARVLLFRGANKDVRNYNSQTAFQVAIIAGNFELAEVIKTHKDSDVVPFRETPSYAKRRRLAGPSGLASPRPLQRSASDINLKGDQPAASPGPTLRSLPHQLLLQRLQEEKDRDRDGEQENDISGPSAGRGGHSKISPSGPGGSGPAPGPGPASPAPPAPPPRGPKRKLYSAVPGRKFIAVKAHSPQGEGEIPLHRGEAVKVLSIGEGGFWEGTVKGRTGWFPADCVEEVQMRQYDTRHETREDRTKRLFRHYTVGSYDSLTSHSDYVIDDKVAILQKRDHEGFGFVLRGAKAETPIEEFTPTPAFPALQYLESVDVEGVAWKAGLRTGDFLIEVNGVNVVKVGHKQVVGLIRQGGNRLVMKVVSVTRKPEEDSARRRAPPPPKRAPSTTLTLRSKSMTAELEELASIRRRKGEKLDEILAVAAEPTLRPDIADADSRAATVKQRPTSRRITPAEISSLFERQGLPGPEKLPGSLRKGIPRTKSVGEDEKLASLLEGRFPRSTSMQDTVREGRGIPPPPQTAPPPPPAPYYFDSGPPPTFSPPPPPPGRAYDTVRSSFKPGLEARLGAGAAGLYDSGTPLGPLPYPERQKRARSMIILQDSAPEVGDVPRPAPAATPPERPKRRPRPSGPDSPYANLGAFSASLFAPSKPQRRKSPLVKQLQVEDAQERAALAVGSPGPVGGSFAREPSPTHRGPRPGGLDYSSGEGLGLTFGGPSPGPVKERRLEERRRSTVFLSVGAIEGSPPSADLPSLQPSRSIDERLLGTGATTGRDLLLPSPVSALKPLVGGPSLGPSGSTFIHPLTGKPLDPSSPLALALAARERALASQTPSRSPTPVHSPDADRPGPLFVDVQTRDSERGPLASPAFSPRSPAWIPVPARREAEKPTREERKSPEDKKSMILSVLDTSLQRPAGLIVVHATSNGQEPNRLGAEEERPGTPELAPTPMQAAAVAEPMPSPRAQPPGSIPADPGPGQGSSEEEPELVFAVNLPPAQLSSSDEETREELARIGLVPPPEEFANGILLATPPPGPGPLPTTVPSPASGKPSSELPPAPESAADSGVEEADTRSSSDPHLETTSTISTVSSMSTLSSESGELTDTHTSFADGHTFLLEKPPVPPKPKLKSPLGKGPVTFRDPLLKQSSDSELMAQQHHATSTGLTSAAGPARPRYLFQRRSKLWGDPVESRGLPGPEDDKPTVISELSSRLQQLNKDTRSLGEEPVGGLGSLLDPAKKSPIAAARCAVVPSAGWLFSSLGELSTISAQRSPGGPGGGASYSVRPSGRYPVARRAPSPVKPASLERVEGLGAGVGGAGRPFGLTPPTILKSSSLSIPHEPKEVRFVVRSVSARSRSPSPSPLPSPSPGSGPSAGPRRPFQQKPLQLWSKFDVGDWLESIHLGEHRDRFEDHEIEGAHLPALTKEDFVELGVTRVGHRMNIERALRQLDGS
UniProt P62834: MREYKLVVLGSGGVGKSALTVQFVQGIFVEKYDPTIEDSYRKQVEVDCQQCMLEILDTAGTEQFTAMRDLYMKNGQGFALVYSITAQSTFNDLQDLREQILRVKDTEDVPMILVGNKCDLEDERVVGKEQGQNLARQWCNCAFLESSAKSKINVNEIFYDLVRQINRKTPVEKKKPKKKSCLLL

Biological target: mRFP-tagged Shank3 N-terminus (SPN + Ank domains) (rat) (UniProt Q9JLU4)
Experiment: co-IP; mRFP-tagged Shank N-termini coexpressed in 293T cells with T7-αCaMKII and/or HA-tagged G12V G-proteins; precipitated with RFP-trap beads, 2 h at 4 °C; IP buffer 50 mM Tris-HCl pH 8, 120 mM NaCl, 0.5% NP40, 1 mM EDTA; Western blot

binding: binds
Substance: HA-tagged Rap1a G12V (constitutively active) (from UniProt P62834 1-184)

No constants are given. Whether binding was seen depends on the method and setting. In cells and extracts the contact can be indirect. Binding can be weak; no strength is given.
